From publication PMC12214887

The chains behind the UniProt entries cited, without tags or fusion partners.
UniProt P59676: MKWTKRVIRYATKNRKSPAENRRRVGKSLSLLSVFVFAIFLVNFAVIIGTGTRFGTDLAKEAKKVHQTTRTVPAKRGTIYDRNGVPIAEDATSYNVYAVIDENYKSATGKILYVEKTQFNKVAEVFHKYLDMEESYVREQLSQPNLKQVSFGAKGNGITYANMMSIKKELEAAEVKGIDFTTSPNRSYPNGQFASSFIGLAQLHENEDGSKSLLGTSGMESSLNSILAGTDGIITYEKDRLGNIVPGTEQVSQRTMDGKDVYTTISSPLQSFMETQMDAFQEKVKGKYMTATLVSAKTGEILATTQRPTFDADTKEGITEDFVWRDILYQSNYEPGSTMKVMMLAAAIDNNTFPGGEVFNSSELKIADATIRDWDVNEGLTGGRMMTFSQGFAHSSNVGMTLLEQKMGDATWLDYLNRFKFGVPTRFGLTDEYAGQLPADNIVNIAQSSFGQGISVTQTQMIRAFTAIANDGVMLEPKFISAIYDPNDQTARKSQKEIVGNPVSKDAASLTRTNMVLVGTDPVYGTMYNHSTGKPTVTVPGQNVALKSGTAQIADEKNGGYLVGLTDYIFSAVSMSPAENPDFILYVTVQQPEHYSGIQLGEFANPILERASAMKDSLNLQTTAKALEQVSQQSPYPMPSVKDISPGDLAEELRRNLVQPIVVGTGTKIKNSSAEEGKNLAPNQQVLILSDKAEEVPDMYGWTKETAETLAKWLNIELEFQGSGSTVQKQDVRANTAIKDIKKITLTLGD

B1: DprA-SmBit (protein, UniProt Q8DPI7 1-282)
chain: MKITNYEIYKLKKSGLTNQQILKVLEYGENVDQELLLGDIADISGCRNPAVFMERYFQIDDAHLSKEFQKFPSFSILDDCYPWDLSEIYDAPVLLFYKGNLDLLKFPKVAVVGSRACSKQGAKSVEKVIQGLENELVIVSGLAKGIDTAAHMAALQNGGKTIAVIGTGLDVFYPKANKRLQDYIGNDHLVLSEYGPGEQPLKFHFPARNRIIAGLCRGVIVAEAKMRSGSLITCERAMEEGRDVFAIPGSILDGLSDGCHHLIQEGAKLVTSGQDVLAEFEF
B2: SmBit-DivIB (protein, UniProt Q8DQM0 1-396)
chain: MSKDKKNEDKETLEELKELSEWQKRNQEYLKKKAEEEVALAEEKEKERQARMGEESEKSEDKQDQESETDQEDSESAKEESEEKVASSEADKEKEEPESKEKEEQDKKLAKKATKEKPAKAKIPGIHILRAFTILFPSLLLLIVSAYLLSPYATMKDIRVEGTVQTTADDIRQASGIQDSDYTINLLLDKAKYEKQIKSNYWVESAQLVYQFPTKFTIKVKEYDIVAYYISGENHYPILSSGQLETSSVSLNSLPETYLSVLFNDSEQIKVFVSELAQISPELKAAIQKVELAPSKVTSDLIRLTMNDSDEVLVPLSEMSKKLPYYSKIKPQLSEPSVVDMEAGIYSYTVADKLIMEAEEKAKQEAKEAEKKQEEEQKKQEEESNRNQTNQRSSRR

Assays:
[1] = biological target: T1, mNeonGreen-DivIB (Streptococcus pneumoniae) (UniProt Q8DQM0); assay: co-IP; non-crosslinked; membranes solubilized with 0.6% Igepal CA-630 in Buffer B (150 mM NaCl, 10 mM Tris-HCl pH8); mNeonGreen-Trap magnetic agarose beads, 6 h at 4 °C; immunoblot with anti-ALFA or anti-HaloTag antibodies; competent (15 min after CSP) or non-competent cultures
T1 sequence: B2 chain

[2] = biological target: FtsW-SmBit (Streptococcus pneumoniae); assay: split reporter; split-luciferase complementation (LgBit/SmBit) in living S. pneumoniae cells 15 min after competence induction with CSP1 at 37 °C; NanoGlo substrate, luminescence in a plate reader
[3] = biological target: LgBit-ComM (Streptococcus pneumoniae); assay: as above

| Molecule | binding [3] | other results |
| --- | --- | --- |
| ALFA-ComM (from UniProt A0ACD7PTF6) |  | binding [1]: binds |
| LgBit-PBP2x (from UniProt P59676 1-750) |  | binding [2]: binds |
| SmBit-PBP2x (from UniProt P59676 1-750) | no binding |  |
| B1 | no binding |  |
| B2 | binds |  |

Results are given in words; binding and its absence hold for the method and conditions named. Binding seen in cells or lysates may run through a third protein. A result given as binding can be weak or reduced; the word gives no strength.
